Values from PubChem BioAssay AID1259254 (NCATS, 2017).

- Aim: 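Genome-wide screen for genes that prevent DNA re-replication in cancer cells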 (primary screen)
- Cells: human HCT116 colorectal cancer cells
- Reagent: single siRNA against human genes
- Duration: 3 days
- Read-out: 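Imaged Hoechst DNA stain sorts each cell into a cycle phase by DNA amount; per plate, G2 fraction set to 0% for non-targeting and 100% for GMNN siRNA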
- Reading the numbers: G2 robust z-score and G2 cells, % of GMNN control: higher = more G2 cells, more excess DNA replication; raw share of cells in G2: higher = larger share of cells with G2 DNA content
- Rule for the call: 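An siRNA counts as active if its G2 robust z-score lies at least 5 MADs above the screen median; here such calls match roughly 38% of GMNN control or more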
In all, the deposit lists about 59,000 reagents; this is a random part of them. In the full data, about 1,550 (2.6%) are marked active. 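G2 share is only a proxy for re-replication; each gene was hit by three separate siRNAs, and active genes were retested.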 Raw values vary from plate to plate and are shown uncorrected. Reagents against one gene are numbered here. Not stated in the record: the amount of reagent.

no.	target gene	siRNA no.	G2 robust z-score	G2 cells, % of GMNN control	raw share of cells in G2 (%)	Call
1	FAM3D (FAM3 metabolism regulating signaling molecule D)	1	-0.526	-0.736	2.31	inactive
2	FAM3D (FAM3 metabolism regulating signaling molecule D)	2	-0.553	-0.926	3.83	inactive
3	FAM3D (FAM3 metabolism regulating signaling molecule D)	3	2.8	22.6	10.3	inactive
4	LINC00207 (long independently transcribed non-coding RNA 207)	1	-0.245	1.24	4.2	inactive
5	LINC00207 (long independently transcribed non-coding RNA 207)	2	1.59	14.2	9.58	inactive
6	LINC00207 (long independently transcribed non-coding RNA 207)	3	1.62	14.4	10.8	inactive
7	GDI2 (GDP dissociation inhibitor 2)	1	-0.714	-2.05	4.49	inactive
8	GDI2 (GDP dissociation inhibitor 2)	2	-0.337	0.593	5.49	inactive
9	GDI2 (GDP dissociation inhibitor 2)	3	0.378	5.62	5.66	inactive
10	ANKRD34C-AS1 (ANKRD34C antisense RNA 1)	1	-1.18	-5.31	1.24	inactive
11	ANKRD34C-AS1 (ANKRD34C antisense RNA 1)	2	1.53	13.7	9.48	inactive
12	ANKRD34C-AS1 (ANKRD34C antisense RNA 1)	3	-0.592	-1.2	2.82	inactive
13	NUTM1 (NUT midline carcinoma family member 1)	1	0.994	9.96	7.19	inactive
14	NUTM1 (NUT midline carcinoma family member 1)	2	-0.349	0.51	3.3	inactive
15	NUTM1 (NUT midline carcinoma family member 1)	3	4.41	34	14	inactive
16	RMND5B (required for meiotic nuclear division 5 homolog B)	1	-0.915	-3.47	3.07	inactive
17	RMND5B (required for meiotic nuclear division 5 homolog B)	2	2.56	21	14	inactive
18	RMND5B (required for meiotic nuclear division 5 homolog B)	3	3.16	25.2	9.34	inactive
19	MRPL39 (mitochondrial ribosomal protein L39)	1	-0.917	-3.49	2.46	inactive
20	MRPL39 (mitochondrial ribosomal protein L39)	2	1.09	10.6	8.16	inactive
21	MRPL39 (mitochondrial ribosomal protein L39)	3	-0.588	-1.17	5.42	inactive
22	CASC3 (CASC3 exon junction complex subunit)	1	-0.123	2.1	5.81	inactive
23	CASC3 (CASC3 exon junction complex subunit)	2	-0.0187	2.84	5.31	inactive
24	CASC3 (CASC3 exon junction complex subunit)	3	-0.568	-1.03	2.79	inactive
25	SWT1 (SWT1 RNA endoribonuclease homolog)	1	-1.48	-7.43	0.944	inactive
26	SWT1 (SWT1 RNA endoribonuclease homolog)	2	-0.189	1.64	4.96	inactive
27	SWT1 (SWT1 RNA endoribonuclease homolog)	3	-0.702	-1.97	2.54	inactive
28	CD180 (CD180 molecule)	1	-0.44	-0.127	5.42	inactive
29	CD180 (CD180 molecule)	2	-0.912	-3.45	4.03	inactive
30	CD180 (CD180 molecule)	3	-0.882	-3.24	2.13	inactive
31	FAM86C2P (family with sequence similarity 86 member C2, pseudogene)	1	3.6	28.3	12	inactive
32	FAM86C2P (family with sequence similarity 86 member C2, pseudogene)	2	0.405	5.82	5.97	inactive
33	FAM86C2P (family with sequence similarity 86 member C2, pseudogene)	3	-0.53	-0.763	2.94	inactive
34	KRTAP19-6 (keratin associated protein 19-6)	1	0.248	4.71	5.32	inactive
35	KRTAP19-6 (keratin associated protein 19-6)	2	0.871	9.1	7.85	inactive
36	KRTAP19-6 (keratin associated protein 19-6)	3	-0.638	-1.52	3.46	inactive
37	ZNF543 (zinc finger protein 543)	1	1.04	10.3	6.64	inactive
38	ZNF543 (zinc finger protein 543)	2	-0.648	-1.59	2.61	inactive
39	ZNF543 (zinc finger protein 543)	3	-0.675	-1.78	2.9	inactive
40	TPTE2P2 (TPTE2 pseudogene 2)	1	-0.123	2.1	4.44	inactive
41	TPTE2P2 (TPTE2 pseudogene 2)	2	0.871	9.1	6.54	inactive
42	TPTE2P2 (TPTE2 pseudogene 2)	3	1.86	16.1	7.83	inactive
43	SCARF1 (scavenger receptor class F member 1)	1	-0.123	2.1	5.46	inactive
44	SCARF1 (scavenger receptor class F member 1)	2	4.85	37.1	21.4	inactive
45	SCARF1 (scavenger receptor class F member 1)	3	2.02	17.2	11.3	inactive
46	YARS2 (tyrosyl-tRNA synthetase 2)	1	-0.53	-0.758	5.61	inactive
47	YARS2 (tyrosyl-tRNA synthetase 2)	2	-1	-4.1	2.73	inactive
48	YARS2 (tyrosyl-tRNA synthetase 2)	3	-0.66	-1.67	3.16	inactive
